Test results reported in PMC7698757.
No constants are given. Whether binding was seen depends on the method and setting. Some entries that bind do so weakly or less than the wild type.

What was measured:
[1] = target: T1, CESA3-Cub (Arabidopsis thaliana) (UniProt Q941L0); test: two-hybrid; split-ubiquitin membrane-based yeast two-hybrid (SU-Y2H) screen for CESA interactive proteins, CESA3 and CESA6 as baits
T1 sequence: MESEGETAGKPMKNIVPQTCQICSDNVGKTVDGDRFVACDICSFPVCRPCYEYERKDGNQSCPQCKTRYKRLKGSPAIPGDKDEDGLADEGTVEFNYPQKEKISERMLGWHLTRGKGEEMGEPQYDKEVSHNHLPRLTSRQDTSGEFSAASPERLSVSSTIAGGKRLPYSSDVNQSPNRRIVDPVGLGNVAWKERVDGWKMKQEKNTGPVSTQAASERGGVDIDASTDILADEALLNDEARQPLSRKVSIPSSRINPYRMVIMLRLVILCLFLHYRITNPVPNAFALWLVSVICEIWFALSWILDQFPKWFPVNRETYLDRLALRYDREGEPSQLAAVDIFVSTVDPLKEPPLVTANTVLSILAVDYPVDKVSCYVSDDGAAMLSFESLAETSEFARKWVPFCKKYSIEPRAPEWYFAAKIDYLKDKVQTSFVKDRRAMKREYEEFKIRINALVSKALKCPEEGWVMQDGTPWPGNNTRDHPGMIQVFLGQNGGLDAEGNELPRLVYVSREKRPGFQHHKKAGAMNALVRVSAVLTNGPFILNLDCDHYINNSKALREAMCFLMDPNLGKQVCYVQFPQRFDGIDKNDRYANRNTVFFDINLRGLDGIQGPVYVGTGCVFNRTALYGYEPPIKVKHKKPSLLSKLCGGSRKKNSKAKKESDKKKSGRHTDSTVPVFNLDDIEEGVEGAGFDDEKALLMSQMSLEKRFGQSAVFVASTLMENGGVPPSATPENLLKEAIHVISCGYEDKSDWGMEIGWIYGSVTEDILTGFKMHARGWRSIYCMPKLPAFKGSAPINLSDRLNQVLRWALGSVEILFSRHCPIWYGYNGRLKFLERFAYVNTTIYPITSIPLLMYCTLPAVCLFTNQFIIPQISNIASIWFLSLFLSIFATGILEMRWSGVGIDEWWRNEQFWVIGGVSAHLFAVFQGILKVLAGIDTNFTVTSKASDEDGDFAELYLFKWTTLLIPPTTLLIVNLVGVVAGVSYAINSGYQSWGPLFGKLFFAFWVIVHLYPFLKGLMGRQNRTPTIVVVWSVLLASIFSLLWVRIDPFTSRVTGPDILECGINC

[2] = target: T2, CESA6-Cub (Arabidopsis thaliana) (UniProt Q94JQ6); test: as above
T2 sequence: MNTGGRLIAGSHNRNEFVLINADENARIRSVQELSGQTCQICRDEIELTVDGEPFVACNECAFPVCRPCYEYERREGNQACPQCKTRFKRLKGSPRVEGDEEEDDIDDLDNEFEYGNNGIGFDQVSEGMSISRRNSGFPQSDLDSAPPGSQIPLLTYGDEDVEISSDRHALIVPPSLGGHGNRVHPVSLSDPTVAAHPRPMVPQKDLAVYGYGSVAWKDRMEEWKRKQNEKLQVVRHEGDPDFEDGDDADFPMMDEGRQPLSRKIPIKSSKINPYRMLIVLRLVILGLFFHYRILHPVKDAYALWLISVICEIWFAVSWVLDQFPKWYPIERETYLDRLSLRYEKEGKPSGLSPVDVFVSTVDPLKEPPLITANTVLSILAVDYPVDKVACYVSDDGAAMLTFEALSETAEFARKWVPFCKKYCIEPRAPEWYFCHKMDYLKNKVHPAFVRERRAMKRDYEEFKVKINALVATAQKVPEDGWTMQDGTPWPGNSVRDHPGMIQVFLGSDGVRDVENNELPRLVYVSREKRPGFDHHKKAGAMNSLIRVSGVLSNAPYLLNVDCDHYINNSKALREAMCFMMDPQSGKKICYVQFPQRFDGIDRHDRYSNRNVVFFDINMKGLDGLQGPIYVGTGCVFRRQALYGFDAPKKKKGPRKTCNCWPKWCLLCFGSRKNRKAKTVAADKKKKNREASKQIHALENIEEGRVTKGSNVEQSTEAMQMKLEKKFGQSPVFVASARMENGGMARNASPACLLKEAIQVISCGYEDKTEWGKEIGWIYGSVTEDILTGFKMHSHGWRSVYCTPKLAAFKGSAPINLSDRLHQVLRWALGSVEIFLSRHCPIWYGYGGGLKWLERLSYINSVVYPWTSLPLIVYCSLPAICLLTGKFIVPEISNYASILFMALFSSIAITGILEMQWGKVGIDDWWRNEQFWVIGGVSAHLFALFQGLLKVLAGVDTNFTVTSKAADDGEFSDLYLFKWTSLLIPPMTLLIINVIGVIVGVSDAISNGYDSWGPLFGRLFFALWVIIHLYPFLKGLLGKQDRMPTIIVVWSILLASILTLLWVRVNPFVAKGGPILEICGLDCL

[3] = target: T1, CESA3-Cub (Arabidopsis thaliana); test: two-hybrid; split-ubiquitin yeast two-hybrid, pairwise: NubG-PAS2 co-expressed with CESA-Cub in S. cerevisiae THY.AP4, 30 °C; growth on dropout medium and beta-galactosidase (X-Gal, filter lift)
[4] = target: T2, CESA6-Cub (Arabidopsis thaliana); test: as above

B1: …O2 (PAS2), prey clone found in the split-ubiquitin yeast two-hybrid screen (protein, UniProt Q8VZB2 1-221)
chain: MAGFLSVVRRVYLTLYNWIVFAGWAQVLYLAITTLKETGYENVYDAIEKPLQLAQTAAVLEILHGLVGLVRSPVSATLPQIGSRLFLTWGILYSFPEVRSHFLVTSLVISWSITEIIRYSFFGFKEALGFAPSWHLWLRYSSFLLLYPTGITSEVGLIYLALPHIKTSEMYSVRMPNILNFSFDFFYATILVLAIYVPGSPHMYRYMLGQRKRALSKSKRE
- binding [1]: binds
- binding [2]: binds

B2: NubG-PAS2 (protein, UniProt Q8VZB2 1-221)
chain: MAGFLSVVRRVYLTLYNWIVFAGWAQVLYLAITTLKETGYENVYDAIEKPLQLAQTAAVLEILHGLVGLVRSPVSATLPQIGSRLFLTWGILYSFPEVRSHFLVTSLVISWSITEIIRYSFFGFKEALGFAPSWHLWLRYSSFLLLYPTGITSEVGLIYLALPHIKTSEMYSVRMPNILNFSFDFFYATILVLAIYVPGSPHMYRYMLGQRKRALSKSKRE
- binding [3]: binds
- binding [4]: binds
